Results: patent publication CN116178551A
Changes are numbered by the printed parent chain. No constants are given. Whether binding was seen depends on the method and setting. Some entries that bind do so weakly or less than the wild type. Tags and fused reporters may be left off the sequences shown. Each block holds one binder with its values, some of them ahead of it.

Protein sequences, listed by entry. Tags and fused reporters are not part of them. Residues count along the entry.
UniProt P26715, residues 94-233: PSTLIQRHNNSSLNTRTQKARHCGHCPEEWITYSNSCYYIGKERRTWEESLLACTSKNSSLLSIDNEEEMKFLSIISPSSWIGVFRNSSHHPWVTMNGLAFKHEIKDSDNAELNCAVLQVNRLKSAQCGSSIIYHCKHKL

Molecular target: NKG2A抗原(NKG2A蛋白胞外段) (human) (UniProt P26715)
Experiment: ELISA on coated NKG2A antigen, three-fold dilutions from 50 μg/mL, Goat Anti Human IgG-HRP

binding: binds
B1: 人源化全抗分子HA-1-IgG1 (humanized antibody HA-1) (antibody, V domains shown, not shown: a dimerising Fc or GST)
VH: EVQLVESGGGLVKPGGSLRLSCAASGFTFSDYDMSWVRQAPGKGLEWVSTISSGGSYTYYPDSVKGRFTISRDNAKNSLYLQMNSLRAEDTAVYYCTSPRQVGLRKAFDYWGQGTTVTVSS
VL: DVVMTQSPAFLSVTPGEKVTITCSASSSVSYMYWYQQKPDQAPKLLIKLTSNLASGVPSRFSGSGSGTDFTFTISSLEAEDAATYYCQQWSSNPFTFGQGTKLEIKR

binding: binds
B2: 人源化全抗分子HA-2-IgG1 (humanized antibody HA-2) (antibody, V domains shown, not shown: a dimerising Fc or GST)
VH: B1 VH with T28A, S49A
VL: B1 VL with V2I, M4V
